{
  "source": "paper PMC2993708",
  "key": {"[1]": {"molecular_target": "T1, CTCF (transfected, HEK293T extract) (UniProt Q61164)", "T1 sequence (looked up, limits assumed)": "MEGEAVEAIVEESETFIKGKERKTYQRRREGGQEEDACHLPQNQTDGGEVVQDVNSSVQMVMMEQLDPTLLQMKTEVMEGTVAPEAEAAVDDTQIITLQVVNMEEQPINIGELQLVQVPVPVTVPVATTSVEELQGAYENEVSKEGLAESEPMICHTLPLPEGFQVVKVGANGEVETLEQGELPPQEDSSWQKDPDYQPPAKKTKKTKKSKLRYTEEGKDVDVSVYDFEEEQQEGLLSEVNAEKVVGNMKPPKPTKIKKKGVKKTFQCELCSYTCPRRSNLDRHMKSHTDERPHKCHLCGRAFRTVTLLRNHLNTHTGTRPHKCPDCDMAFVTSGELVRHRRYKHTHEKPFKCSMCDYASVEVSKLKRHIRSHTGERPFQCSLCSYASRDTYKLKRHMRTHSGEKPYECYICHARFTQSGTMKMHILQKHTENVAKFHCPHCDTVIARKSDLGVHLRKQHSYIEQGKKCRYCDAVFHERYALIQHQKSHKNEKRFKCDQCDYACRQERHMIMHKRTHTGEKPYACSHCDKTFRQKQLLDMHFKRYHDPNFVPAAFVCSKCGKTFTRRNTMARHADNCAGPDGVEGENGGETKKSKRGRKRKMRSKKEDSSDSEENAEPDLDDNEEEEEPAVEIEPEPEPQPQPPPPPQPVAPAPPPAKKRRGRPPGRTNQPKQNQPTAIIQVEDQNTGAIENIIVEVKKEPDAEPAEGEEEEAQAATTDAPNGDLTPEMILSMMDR", "assay": "competition with a labelled probe", "details": "EMSA: 20 mM Hepes pH 7.4, 20 mM KCl, 1 mM MgCl2, 5 mM DTT, 10 uM ZnCl2, 10% glycerol, 100 ug/ml BSA, 0.02% NP40, 2-4 ug salmon sperm DNA, room temperature 20 min, 5% gel, protein in a lysate after overexpression, label: 32P end label"}, "[2]": {"molecular_target": "T1, CTCF (transfected, HEK293T extract)", "assay": "EMSA", "details": "EMSA: 20 mM Hepes pH 7.4, 20 mM KCl, 1 mM MgCl2, 5 mM DTT, 10 uM ZnCl2, 10% glycerol, 100 ug/ml BSA, 0.02% NP40, 2-4 ug salmon sperm DNA, room temperature 20 min, 5% gel, protein in a lysate after overexpression, label: 32P end label"}, "[3]": {"molecular_target": "T2, CTCF (endogenous, HEK293T nuclear extract) (UniProt P49711)", "T2 sequence (looked up, limits assumed)": "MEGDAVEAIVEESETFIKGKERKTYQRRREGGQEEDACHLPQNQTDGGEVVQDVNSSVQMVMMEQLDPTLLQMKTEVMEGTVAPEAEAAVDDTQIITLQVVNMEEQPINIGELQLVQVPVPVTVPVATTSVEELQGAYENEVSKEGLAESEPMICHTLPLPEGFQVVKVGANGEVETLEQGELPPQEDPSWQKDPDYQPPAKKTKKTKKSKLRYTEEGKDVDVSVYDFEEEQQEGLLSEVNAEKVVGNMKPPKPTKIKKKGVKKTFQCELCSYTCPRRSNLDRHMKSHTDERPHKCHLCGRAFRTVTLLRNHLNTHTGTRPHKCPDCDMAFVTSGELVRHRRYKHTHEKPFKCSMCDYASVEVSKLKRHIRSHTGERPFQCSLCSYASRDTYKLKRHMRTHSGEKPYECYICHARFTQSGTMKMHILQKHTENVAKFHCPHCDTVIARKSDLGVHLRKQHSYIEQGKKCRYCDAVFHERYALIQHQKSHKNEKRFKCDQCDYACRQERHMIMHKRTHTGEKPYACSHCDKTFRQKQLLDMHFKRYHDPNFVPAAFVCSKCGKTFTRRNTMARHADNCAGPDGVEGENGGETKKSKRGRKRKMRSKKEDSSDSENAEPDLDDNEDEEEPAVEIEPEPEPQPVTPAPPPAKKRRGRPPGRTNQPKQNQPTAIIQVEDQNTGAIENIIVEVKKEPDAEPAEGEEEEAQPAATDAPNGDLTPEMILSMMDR", "assay": "EMSA", "details": "EMSA: 20 mM Hepes pH 7.4, 20 mM KCl, 1 mM MgCl2, 5 mM DTT, 10 uM ZnCl2, 10% glycerol, 100 ug/ml BSA, 0.02% NP40, 2-4 ug salmon sperm DNA; room temperature 20 min; 5% gel; protein in an extract; label: 32P end label"}, "GST-CTCF-ZF": {"molecular_target": "GST-CTCF-ZF (UniProt Q61164)", "assay": "EMSA", "details": "EMSA: 20 mM Hepes pH 7.4, 20 mM KCl, 1 mM MgCl2, 5 mM DTT, 10 uM ZnCl2, 10% glycerol, 100 ug/ml BSA, 0.02% NP40, 2-4 ug salmon sperm DNA; room temperature 20 min; 5% gel; recombinant protein; protein details: GST (N-terminal); label: 32P end label"}},
  "note": "The exact form of at least one protein or probe is not confirmed. For some of these results: Where cells or extracts were used, other partners may take part. For some of these results: Weaker means in comparison with the reference protein, sequence or condition of that experiment. For some of these results: Tags and fusion partners may be left off the protein sequences shown.",
  "data": [
    {"sequence": "CTAGATGAAGAAATTGAGACCTCTACTGGATAGCTATGGTATTTACGTGTCTA / AGCTTAGACACGTAAATACCATAGCTATCCAGTAGAGGTCTCAATTTCTTCAT [F1 (chicken lysozyme)]", "values": [
      {"measurement": "binding result", "setting": "[1]; relative to R30, 300-fold excess competitor", "result": "binds more weakly"}
    ]},
    {"sequence": "TGTATGGTTGATCGAGACCATTGTCGGGCAATACCTAGTAGTGACAAGTTTCGGGAACGCTCCAGGCCTCT (double strand) [R30mut]", "values": [
      {"measurement": "binding result", "setting": "[2]; relative to R30", "result": "binds more weakly"}
    ]},
    {"sequence": "TGTATGGTTGATCGAGACCATTGTCGGGCGACACCTAGTGGTGACAAGTTTCGGGAACGCTCCAGGCCTCT (double strand) [R30-CmE (R30met)]", "values": [
      {"measurement": "binding result", "setting": "[2]; slightly less than unmethylated R30, 5-methyl-dC at strand 1 positions 25 and 29, strand 2 positions 42 and 46", "result": "binds more weakly"},
      {"measurement": "binding result", "setting": "[1]; poorer competitor than unmethylated R30, 5-methyl-dC at strand 1 positions 25 and 29, strand 2 positions 42 and 46", "result": "binds more weakly"}
    ]},
    {"sequence": "TGTATGGTTGATCGAGACCATTGTCGGGCGACACCTAGTGGTGACAAGTTTCGGGAACGCTCCAGGCCTCT (double strand) [R30]", "values": [
      {"measurement": "binding result", "setting": "[3]", "result": "binds"},
      {"measurement": "binding result", "setting": "[2]", "result": "binds"},
      {"measurement": "binding result", "setting": "GST-CTCF-ZF", "result": "binds"}
    ]}
  ]
}
